# Source: the supplement of paper PMC3682954
# Several values for one entry are separate records, joined by “and”; a condition that tells them apart may be missing. Identical values can stand only once. Counter-ions that a name gives are not always drawn. ± gives the standard deviation of the averaged measurements. Some of the results follow. Many values rest on one well or one pass, so single values are uncertain.
# Test system: RAW 264.7
# Assay: HMGB1-induced TNF-alpha production relative to HMGB1-stimulated control; higher = more TNF-alpha secretion (less inhibition)
# Details: stimulus: HMGB1 5 ug/ml, 18 h
# [1] = compound concentration: 1 ug/ml
SMILES,HMGB1-induced TNF-alpha production (compound concentration: 3 uM),HMGB1-induced TNF-alpha production [1] [%]
CCN1CCc2nc(N)oc2CC1 [B-HT 933 dihydrochloride],75.5%,–
C[N+](C)(C)CCOC(=O)CCC(=O)OCC[N+](C)(C)C [Succinylcholine],96.3%,–
C[N+](C)(C)CCOC(=O)CCC(=O)OCC[N+](C)(C)C [Succinylcholine chloride],109%,–
COc1cc(-c2oc3cc(O)ccc3c(=O)c2O)cc(OC)c1OC [Robinetin trimethyl ether],–,101
O=c1c(O)c(-c2ccc(O)c(O)c2)oc2ccccc12,–,35.2
CCOc1ccc2nc3cc(N)ccc3c(N)c2c1,78.8%,–
CCN(CC)CCNc1ccc(CO)c2sc3ccccc3c(=O)c12 [Hycanthone],47.7%,–
CCN(CC)CCNc1ccc(CO)c2sc3ccccc3c(=O)c12,54.8 ± 6.8%,–
CN(Cc1cnc2nc(N)nc(N)c2n1)c1ccc(C(=O)N[C@@H](CCC(=O)O)C(=O)O)cc1,99.9%,–
CN(Cc1cnc2nc(N)nc(N)c2n1)c1ccc(C(=O)N[C@@H](CCC(=O)O)C(=O)O)cc1 [Methotrexate],79.3%,–
CN(Cc1cnc2nc(N)nc(N)c2n1)c1ccc(C(=O)N[C@@H](CCC(=O)O)C(=O)O)cc1 [Methotrexate hydrate],89.4%,–
O=C(COc1ccc(Cl)cc1)N1CCN(Cc2ccc3c(c2)OCO3)CC1 [Fipexide hydrochloride],71.7%,–
O=C(COc1ccc(Cl)cc1)N1CCN(Cc2ccc3c(c2)OCO3)CC1,82%,–
CNC(C)CCC=C(C)C (configuration not stated) [Isometheptene mucate],102%,–
CC(C)(C)CC(C)(C)c1ccc(O)c(Cc2ccc(Cl)cc2Cl)c1,60.4%,–
C[C@H]1[C@H](C)CC[C@]2(C(=O)O)CC[C@]3(C)C(=CC[C@@H]4[C@@]5(C)C[C@@H](O)[C@H](O)[C@@](C)(CO)[C@@H]5CC[C@]43C)[C@H]12 [Asiatic acid],–,82.7
CCOC(=O)c1ccc(N)cc1,85.4%,–
CCOC(=O)c1ccc(N)cc1 [Benzocaine],98.9%,–
CCN(CC)CCOC(=O)C(c1ccccc1)c1ccccc1,99.2%,–
CCN(CC)CCOC(=O)C(c1ccccc1)c1ccccc1 [Adiphenine hydrochloride],80.1%,–
OC(CCCN1CCCCC1)(c1ccccc1)c1ccccc1 [Diphenidol hydrochloride],73.6%,–
"C=CCn1c(=O)c2c(nc(-c3ccc(S(=O)(=O)O)cc3)n2C)n(C)c1=O [1-Allyl-3,7-dimethyl-8-p-sulfophenylxanthine]",95.6%,–
C[C@]12CC[C@@H]3c4ccc(OS(=O)(=O)O)cc4CC[C@H]3[C@@H]1CCC2=O [Estropipate],117%,–
C[C@]12CC[C@@H]3c4ccc(OS(=O)(=O)O)cc4CC[C@H]3[C@@H]1CCC2=O,79% and 99.1%,–
COc1cccc(OC)c1C(=O)N[C@@H]1C(=O)N2[C@@H]1SC(C)(C)[C@@H]2C(=O)O,103%,–
Cc1cc2c(C(C)C)c(O)c(O)c(/C=N/n3c(=O)[nH][nH]c3=O)c2c(O)c1-c1c(C)cc2c(C(C)C)c(O)c(O)c(/C=N/n3c(=O)[nH][nH]c3=O)c2c1O,–,63.7

SMILES,HMGB1-induced TNF-alpha production (compound concentration: 3 uM),HMGB1-induced TNF-alpha production [1] [%]
Cc1ccc(S(=O)(=O)NC(=O)NN2CCCCCC2)cc1,82.4%,–
Cc1ccc(S(=O)(=O)NC(=O)NN2CCCCCC2)cc1 [Tolazamide],86.5 ± 11%,–
COc1cc2c(CCNC(C)=O)c[nH]c2cc1Cl [6-Chloromelatonin],81.5%,–
CCCN(CCc1ccccc1)C1CCc2c(O)cccc2C1 (racemic) [(±)-PPHT hydrochloride],113%,–
CCCCC1(COC(=O)CCC(=O)O)C(=O)N(c2ccccc2)N(c2ccccc2)C1=O,74.6%,–
CCCCC1(COC(=O)CCC(=O)O)C(=O)N(c2ccccc2)N(c2ccccc2)C1=O [Suxibuzone],80.7%,–
COc1cc(NC(C)CCCN)c2ncccc2c1 (configuration not stated) [Primaquine diphosphate],87.2%,–
COc1cc(NC(C)CCCN)c2ncccc2c1 (configuration not stated),76%,–
COc1cc(NC(C)CCCN)c2ncccc2c1 (configuration not stated) [Primaquine],82.3%,–
O=C(O)c1cc2cc3c4c(c2oc1=O)CCCN4CCC3 [Coumarin 343],–,83.1
CCCCNc1c(C(=O)OCC)c(C)nc2c1cnn2CC [Tracazolate hydrochloride],82.1%,–
CCCCNc1c(C(=O)OCC)c(C)nc2c1cnn2CC [Tracazolate],85.1%,–
CO[C@H](C(=O)[C@@H](O)[C@@H](C)O)[C@@H]1Cc2cc3cc(O[C@H]4C[C@@H](O[C@@H]5C[C@@H](O)[C@H](O)[C@@H](C)O5)[C@H](O)[C@@H](C)O4)c(C)c(O)c3c(O)c2C(=O)[C@H]1O[C@H]1C[C@@H](O[C@@H]2C[C@@H](O)[C@@H](O[C@@H]3C[C@](C)(O)[C@H](O)[C@@H](C)O3)[C@@H](C)O2)[C@H](O)[C@@H](C)O1 [Plicamycin],114%,–
CC[N+](CC)(CC)CC(=O)Nc1c(C)cccc1C [Lidocaine N-ethyl bromide quaternary salt],107%,–
COc1cc(-c2ccc(=O)[nH]n2)ccc1OC(F)F [Zardaverine],80.5 ± 8.1%,–
Nc1nc(OCc2ccccc2)c2nc[nH]c2n1 [O6-benzylguanine],65.2%,–
CC1=C(/C=C/C(C)=C/C=C/C(C)=C\C(=O)O)C(C)(C)CCC1,41.4%,–
CC1=C(/C=C/C(C)=C/C=C/C(C)=C\C(=O)O)C(C)(C)CCC1 [Isotretinoin],55.8%,–
CC1=C(/C=C/C(C)=C/C=C/C(C)=C\C(=O)O)C(C)(C)CCC1 [13-cis-retinoic acid],120%,–
CC/C(=C(/CC)c1ccc(O)cc1)c1ccc(O)cc1 [Diethylstilbestrol],91.6 ± 17%,–
CC/C(=C(/CC)c1ccc(O)cc1)c1ccc(O)cc1,87.4%,–
CC(C)(Sc1ccc(CCN(CCCCC2CCCCC2)C(=O)NC2CCCCC2)cc1)C(=O)O,101%,–
NC1C=CC=C(C(=O)O)C1 (configuration not stated) [Gabaculine hydrochloride],84.3%,–
CSc1ccc2c(c1)N(CCC1CCCCN1C)c1ccccc1S2 (configuration not stated) [Thioridazine hydrochloride],91 ± 27%,–
CSc1ccc2c(c1)N(CCC1CCCCN1C)c1ccccc1S2 (configuration not stated) [Thioridazine],93.6%,–
CSc1ccc2c(c1)N(CCC1CCCCN1C)c1ccccc1S2 (configuration not stated),87.7%,–

SMILES,HMGB1-induced TNF-alpha production (compound concentration: 3 uM),HMGB1-induced TNF-alpha production [1] [%]
NC(N)=Nc1nc(CSCC/C(N)=N/S(N)(=O)=O)cs1,106 ± 12%,–
NC(N)=Nc1nc(CSCC/C(N)=N/S(N)(=O)=O)cs1 [Famotidine],78.8 ± 5.9%,–
Cc1cc(=O)oc2ccc(O)cc12 [6-Hydroxy-4-methyl-2-benzopyrone],–,60.8
Cc1cc(-c2ccccc2)nnc1NCCN1CCOCC1,96.1%,–
Cc1cc(-c2ccccc2)nnc1NCCN1CCOCC1 [Minaprine dihydrochloride],71.1%,–
Nc1ccc(CCNc2ncnc3c2ncn3C2OC(CO)C(O)C2O)cc1 (configuration not stated) [N6-2-(4-Aminophenyl)ethyladenosine],87.3%,–
COc1cc(-c2cc(=O)c3c(O)c(OC)c(OC4OC(COC5OC(C)C(O)C(O)C5O)C(O)C(O)C4O)cc3o2)ccc1O (configuration not stated) [Demethoxycentaureidin 7-O-rutinoside],–,78.4
CN(C)[C@@H]1C(O)=C(C(N)=O)C(=O)[C@@]2(O)C(O)=C3C(=O)c4c(O)cccc4[C@@](C)(O)[C@H]3[C@H](O)[C@@H]12 [Oxytetracycline dihydrate],70.2%,–
CN(C)[C@@H]1C(O)=C(C(N)=O)C(=O)[C@@]2(O)C(O)=C3C(=O)c4c(O)cccc4[C@@](C)(O)[C@H]3[C@H](O)[C@@H]12 [Oxytetracycline hydrochloride],–,67.1
CN(C)[C@@H]1C(O)=C(C(N)=O)C(=O)[C@@]2(O)C(O)=C3C(=O)c4c(O)cccc4[C@@](C)(O)[C@H]3[C@H](O)[C@@H]12,93.3%,–
OC(CN1CCN(c2cccc(Cl)c2)CC1)C(c1ccccc1)c1ccccc1 (configuration not stated),69.7%,–
"C#CCn1c(=O)c2c(ncn2C)n(C)c1=O [3,7-Dimethyl-1-propargylxanthine]",84%,–
CC(=O)OCC(=O)[C@H]1CC[C@H]2[C@@H]3CCC4=CC(=O)CC[C@]4(C)[C@H]3CC[C@]12C,59%,–
CC(=O)OCC(=O)[C@H]1CC[C@H]2[C@@H]3CCC4=CC(=O)CC[C@]4(C)[C@H]3CC[C@]12C [deoxycorticosterone acetate],–,57
N#C/C(=C\c1ccc(O)c(O)c1)C(=O)NCc1ccccc1 [Tyrphostin AG 490],121%,–
N[C@@H](Cc1ccc(Cl)cc1)C(=O)O [L-4-Chlorophenylalanine],–,73.3
N=C(N)NCCN1CCCCCCC1 [Guanethidine sulfate],93.2%,–
N=C(N)NCCN1CCCCCCC1,88.3%,–
C#C[C@]1(O)CC[C@H]2[C@@H]3CCC4=CC(=O)CC[C@@H]4[C@H]3CC[C@@]21CC,107%,–
C#C[C@]1(O)CC[C@H]2[C@@H]3CCC4=CC(=O)CC[C@@H]4[C@H]3CC[C@@]21CC [Norgestrel-(-)-D],90.6%,–
C#C[C@]1(O)CC[C@H]2[C@@H]3CCC4=CC(=O)CC[C@@H]4[C@H]3CC[C@@]21CC [Levonorgestrel],104%,–
CC(CN(C)C)CN1c2ccccc2Sc2ccccc21 (configuration not stated) [Trimeprazine tartrate],113%,–
CC(CN(C)C)CN1c2ccccc2Sc2ccccc21 (configuration not stated),82.6%,–
CC1(C)[C@@H](OC(=O)CCC(=O)O)CC[C@]2(C)[C@H]3C(=O)C=C4[C@@H]5C[C@@](C)(C(=O)O)CC[C@]5(C)CC[C@@]4(C)[C@]3(C)CC[C@@H]12,75.8%,–
CC1(C)[C@@H](OC(=O)CCC(=O)O)CC[C@]2(C)[C@H]3C(=O)C=C4[C@@H]5C[C@@](C)(C(=O)O)CC[C@]5(C)CC[C@@]4(C)[C@]3(C)CC[C@@H]12 [Carbenoxolone disodium salt],95.1%,–
